Test results: PubChem BioAssay AID1347076 (National Center for Advancing Translational Sciences (NCATS), 2019)
Several values for one entry are separate records, joined by “and”; a condition that tells them apart may be missing. Equal entries are not always repeated. The campaign covered roughly 400,000 compounds. About 13,000 (3.2%) were called active. Inconclusive means that the source gave no clear call. Such entries were picked first, then a sample of the others. Calls follow the shape of the dose curve; as a rule, active = well fitted cell-killing curve with a large enough effect; inconclusive = small, poorly fitted or top-dose-only effect, or effect the other way; inactive = flat fitted curve, though single readings scatter. Potencies beside an inconclusive call are fits to weak or partial responses and may not hold up.

experiment: qHTS assay for MDR1-selective chemotherapeutics: Primary screen using the drug-selected MDR subline cells KB-V1; conditions: KB-V1 MDR cells viability, CellTiter-Glo, 72 h; activity change, negative = cytotoxicity: at 46.1 µM (top of the series); also: nearly all actives have a fitted effect of over 60% in size
Method in brief: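 Drug-selected KB-V1 cells, grown in DMEM lacking phenol red with 10% FBS, receive compound titrations; after three days at 37 degrees C, surviving cell ATP is quantified by CellTiter-Glo luminescence and responses normalized and curve-fitted.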
% is scaled to controls: 0 for no effect and ±100 for the full control effect; potency is read from the fitted curve at half-maximal effect.

Row | SMILES | Potency | activity change, negative = cytotoxicity
1 | COc1cc(CNCc2ccc(OC)c(OC)c2OC)cc(OC)c1 | inconclusive: 25.9 µM [cytotoxic, single point] | –
2 | O=C(COc1ccccc1)Nc1nnc(S(=O)(=O)N2CCCC2)s1 | inconclusive: 18.4 µM [rising, single point] | –
3 | Cc1ccc(OCCn2c(=S)[nH]c3ccccc32)c(C(C)C)c1 | inactive | –
4 | CC(=O)C[C@@H](O)CC(=O)[C@H]1OC(=O)[C@H](C)CCCCc2ccccc21 | inconclusive: 20.6 µM [rising, single point] | –
5 | O=C(COC(=O)Cc1ccc(Cl)c(Cl)c1)NCCc1ccccc1 | inactive | –
6 | CC1CCCC(NC(=O)COC(=O)c2cccnc2Cl)C1C (stereo not given) | inconclusive: 29.1 µM [rising, single point] | –
7 | CCCCOc1cccc(NC(=O)CSc2nnc(C)s2)c1 | inactive | –
8 | Cc1cc(Nc2cccc(C(F)(F)F)c2)nc2ccc(NC(=O)c3ccc(=O)[nH]c3)cc12 | inconclusive: 29.1 µM [rising, single point] | –
9 | O=C(CSc1nnc(-c2ccc(F)cc2)o1)Nc1ccc(S(=O)(=O)N2CCCCCC2)cc1 | inconclusive: 10.3 µM [cytotoxic, partial curve, poor fit] | –
10 | N#C/C(=C/c1ccc([N+](=O)[O-])cc1)C(=O)Nc1ccccc1O | inconclusive: 32.6 µM [cytotoxic, single point] | –
11 | O=C(NCc1ccc(F)cc1)c1c(O)nc2ccccn2c1=O | inconclusive: 23.1 µM [cytotoxic, partial curve, poor fit] | –
12 | Nc1nc2ccccc2n1/N=C/c1ccc2c(c1)OCO2 | inconclusive: 23.1 µM [cytotoxic, single point] | –
13 | Cc1cc(N/N=C/c2ccco2)c2ccccc2n1 | inactive | –
14 | COc1ccc(-c2ccc(C#N)c(SCC(=O)Nc3sc4c(c3C#N)CCC4)n2)cc1OC | inconclusive: 8.2 µM [cytotoxic, partial curve, poor fit] | –
15 | Cc1cc(O)c2c(c1O)C(=O)[C@]13C(=C2O)C(=O)[C@@H]2[C@@H](O)[C@H]1[C@@H]1[C@H](O)[C@H]3C(=O)C3=C(O)c4c(O)cc(C)c(O)c4C(=O)[C@]312 | inactive | –
16 | COc1ccc(NC(=O)COc2ccc(S(=O)(=O)NC3CCCCC3)cc2)cc1OC | inactive | –
17 | COc1ccccc1CN1CCCC(C(=O)N2CCCCC2)C1 (stereo not given) | – | inconclusive: -22.8%
18 | CN1CCC(N(C)S(=O)(=O)c2ccc(NC(=O)Cc3ccc(F)cc3)cc2)CC1 | inconclusive: 29.1 µM [rising, single point] | –
19 | CC(C)(C)n1nnnc1C(c1ccccc1OC(F)(F)F)N1CCN(C/C=C/c2ccccc2)CC1 (stereo not given) | inconclusive: 29.1 µM [cytotoxic, single point] | –
20 | CCCc1cc(=O)[nH]c(SCCc2ccccc2)n1 | active: 16.4 µM | –
21 | COc1cccc(-c2cc(C(=O)Nc3ccc(N(C)C(C)=O)cc3)c3cc(Br)ccc3n2)c1 | inconclusive: 18.4 µM [cytotoxic, partial curve, poor fit] | –
22 | Cc1ccc(C(=O)N2CCCCCC2)cc1Br | inconclusive: 29.1 µM [cytotoxic, single point] | –

Row | SMILES | Potency | activity change, negative = cytotoxicity
23 | CCOC(=O)c1[nH]ncc1CN1CCCC(C(=O)c2cc(Cl)ccc2OC)C1 (stereo not given) | inactive | –
24 | O=C(OCc1cc(=O)c(OC(=O)c2ccccc2)co1)c1ccccc1 | inconclusive: 2.59 µM [rising, partial curve, poor fit] | –
25 | COc1ccc(CC(=O)Nc2c(C(=O)N3CCN(c4ncccn4)CC3)oc3ccccc23)cc1OC | inconclusive: 0.82 µM [cytotoxic, full curve, poor fit] | –
26 | COc1ccc(Br)cc1C1Sc2ccccc2NC2=C1C(=O)c1ccccc12 (stereo not given) | inconclusive: 23.1 µM [cytotoxic, single point] | –
27 | CC1(C)Cc2c(C#N)c(SCc3nc4ccccc4[nH]3)nc(N3CCOCC3)c2CO1 | active: 9.2 µM | –
28 | Cc1nc2ccc([N+](=O)[O-])cc2c(=O)n1Cc1ccc(Cl)cc1 | inconclusive: 20.6 µM [cytotoxic, partial curve, poor fit] | –
29 | CCN(CC)CCOC(=O)c1ccc([N+](=O)[O-])cc1 | inconclusive: 16.4 µM [rising, partial curve, poor fit] | –
30 | Cc1ccnc(SC2CC(=O)N(c3ccc(F)cc3)C2=O)n1 (stereo not given) | inconclusive: 29.1 µM [rising, single point] | –
31 | COc1ccc(C(=O)Nn2cnc3ccccc3c2=O)c(OC)c1 | inactive | –
32 | Clc1ccc(CSc2nnc3ccccn23)c(Cl)c1 | inconclusive: 18.4 µM [cytotoxic, single point] | –
33 | O=C(/C=C/c1ccccc1)CC(O)(c1ccccc1)C(F)(F)F (stereo not given) | active: 23.1 µM | –
34 | Cc1onc(-c2c(F)cccc2Cl)c1C(=O)N1CCc2ccccc21 | inconclusive: 16.4 µM [cytotoxic, single point] | –
35 | CCOc1ccc(N(CC(=O)NCCOc2ccc(C)cc2)S(=O)(=O)c2ccccc2)cc1 | inconclusive: 6.51 µM [cytotoxic, partial curve] | –
36 | CCOC(=O)c1c2c(c(=S)n(-c3ccccc3)c1N)CCC2 | active: 20.6 µM | –
37 | C=C(C)CSC1=C(C#N)C(c2ccccc2Cl)CC(=O)N1 (stereo not given) | inconclusive: 23.1 µM [cytotoxic, single point] | –
38 | Cc1nn(C)c(C)c1CN(C(=O)C1CCC(=O)N(C2CCCCCC2)C1)C(C)C (stereo not given) | – | inconclusive: -9.95%
39 | COc1ccc(S(=O)(=O)N2CCCCCC2)cc1C(=O)N1CCN(C(C)=O)CC1 | inactive | –
40 | CCOc1cc(CNc2ccc3c(c2)OCCO3)cc(Br)c1OCC | active: 2.59 µM | –
41 | O=C(N/N=C/c1cn(-c2ccccc2)nc1-c1ccccc1)c1ccco1 | inconclusive: 16.4 µM [cytotoxic, single point] | –
42 | CC(Sc1nnc2n1CCCCC2)C(=O)Nc1ccccc1[N+](=O)[O-] (stereo not given) | inconclusive: 16.4 µM [cytotoxic, single point] | –
43 | O=C(COC(=O)CCc1nc2ccccc2c(=O)[nH]1)NC1CCS(=O)(=O)C1 (stereo not given) | inconclusive: 29.1 µM [rising, single point] | –
44 | O=C(CCOc1ccccc1)N1CCCC(Nc2ccccc2)C1 (stereo not given) | inconclusive: 18.4 µM [cytotoxic, single point] | –

Row | SMILES | Potency | activity change, negative = cytotoxicity
45 | COc1cc(-c2[nH]ncc2CN2CCN(c3cccc(C)n3)CC2)cc(OC)c1OC | inconclusive: 29.1 µM [cytotoxic, single point] | –
46 | COc1ccc2c(c1OC)C(=O)OC2C1c2c(cc3c(c2OC)OCO3)CCN1C (stereo not given) | inconclusive: 9.2 µM [cytotoxic, partial curve] and inconclusive: 29.1 µM [cytotoxic, single point] and inconclusive: 7.31 µM [cytotoxic, partial curve] | –
47 | CC1(C(=O)NS(=O)(=O)Cc2ccccc2C(F)(F)F)CCN1C(=O)c1ccco1 (stereo not given) | inactive | –
48 | COc1ccc(N=c2scc(-c3ccc(OC)cc3)n2CCO)cc1 | inconclusive: 9.2 µM [cytotoxic, partial curve] | –
49 | O=c1[nH]c2cc(F)ccc2c2ccc(F)cc12 | inconclusive: 18.4 µM [cytotoxic, partial curve, poor fit] | –
50 | COc1cc(OC)cc(C2=Cc3ccccc3C(CC(C)=O)N2c2ccc(-c3cncnc3)cc2)c1 (stereo not given) | inconclusive: 29.1 µM [cytotoxic, single point] | –
51 | Cc1ccc(Nc2nc(N)nc(CN3CCc4ccccc4C3)n2)cc1 | inactive | –
52 | COc1ccc(-c2csc(NC(=O)CN3C(=O)NC4(CCCC4)C3=O)n2)cc1 | inconclusive: 29.1 µM [rising, single point] | –
53 | Cc1c(-n2cc(C(=O)c3cc(F)ccc3O)cc(C#N)c2=O)c(=O)n(-c2ccccc2)n1C | inactive | –
54 | C1CCCCCC(NCCN2CCNCC2)CCCCC1 | inconclusive: 29.1 µM [cytotoxic, single point] | –
55 | Cc1ccc(S(=O)(=O)N[C@H](C(=O)OCC(=O)NC(=O)Nc2ccc3c(c2)OCCO3)C(C)C)cc1 | inconclusive: 16.4 µM [cytotoxic, single point] | –
56 | CCOc1cc(C2Nc3cccc4cccc(c34)N2)ccc1O | active: 14.6 µM | –
57 | Cc1ccc(/C=N/c2sc3c(c2C(N)=O)CCCC3)o1 | inconclusive: 29.1 µM [rising, single point] | –
58 | CC(Oc1ccc([N+](=O)[O-])cc1Cl)C(=O)Nc1ccc(C(N)=O)cc1 (stereo not given) | inconclusive: 29.1 µM [cytotoxic, single point] | –
59 | Cc1cccn2c(=O)c(C=O)c(N3CCSCC3)nc12 | inactive | –
60 | CS(=O)(=O)N1CCCC(C(=O)c2cccc(Cl)c2)C1 (stereo not given) | inconclusive: 32.6 µM [cytotoxic, single point] | –
61 | O=C1c2ccccc2C(=O)N1CCCCN(C(=O)c1ccc(Cl)s1)c1ccc(Cl)cc1 | inconclusive: 5.8 µM [cytotoxic, full curve] | –
62 | CCOC(=O)c1c(S(=O)(=O)NCC(=O)NCc2cccc(C)c2)c(C)n(C)c1C | inconclusive: 2.59 µM [cytotoxic, partial curve, poor fit] | –
63 | CS(=O)(=O)c1ccc(NCCN2CCOCC2)c([N+](=O)[O-])c1 | inconclusive: 29.1 µM [rising, single point] | –
64 | CC(=O)O[C@H]1CC[C@@]2(C)C(=CC[C@H]3[C@@H]4CC[C@H](C5(C)OCCO5)[C@@]4(C)CC[C@@H]32)C1 | inconclusive: 16.4 µM [rising, partial curve, poor fit] | –
65 | Cc1cc(OCC(=O)OCC(=O)N2CCCc3ccccc32)ccc1Cl | – | inconclusive: 1.17%

Complete entries, quoted from the list:
`O=C(CCOc1ccccc1)N1CCCC(Nc2ccccc2)C1` (stereo not given) in the list: Potency: inconclusive: 18.4 µM [cytotoxic, single point]
`Cc1c(-n2cc(C(=O)c3cc(F)ccc3O)cc(C#N)c2=O)c(=O)n(-c2ccccc2)n1C` in the list: Potency: inactive

Compounds listed so far with a thiophene ring, fused or not:
Row | SMILES | Potency | activity change, negative = cytotoxicity
14 | COc1ccc(-c2ccc(C#N)c(SCC(=O)Nc3sc4c(c3C#N)CCC4)n2)cc1OC | inconclusive: 8.2 µM [cytotoxic, partial curve, poor fit] | –
57 | Cc1ccc(/C=N/c2sc3c(c2C(N)=O)CCCC3)o1 | inconclusive: 29.1 µM [rising, single point] | –
61 | O=C1c2ccccc2C(=O)N1CCCCN(C(=O)c1ccc(Cl)s1)c1ccc(Cl)cc1 | inconclusive: 5.8 µM [cytotoxic, full curve] | –
